{"source": "PubChem BioAssay AID1259254 – NCATS – 2017", "aim": "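Gene knock-downs that lead to re-replication, shown by excess G2 DNA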 (primary screen)", "cells": "human HCT116 colorectal cancer cells", "reagent": "single siRNA against human genes", "timing": "3 days", "detection": "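Imaged Hoechst DNA stain sorts each cell into a cycle phase by DNA amount; per plate, G2 fraction set to 0% for non-targeting and 100% for GMNN siRNA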", "reading the numbers": "G2 robust z-score: higher = more G2 cells, more excess DNA replication", "call rule": "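An siRNA counts as active if its G2 robust z-score lies at least 5 MADs above the screen median; here such calls match roughly 38% of GMNN control or more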", "note": "Shown is one part, drawn at random, of about 59,000 deposited reagents. About 1,550 of all reagents (2.6%) were called active. 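G2 share is only a proxy for re-replication; each gene was hit by three separate siRNAs, and active genes were retested.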 The numbers tell different reagents against one gene apart. Not all columns of the deposit are shown. The record does not give: the amount of reagent."}
{"gene":"FGF1","siRNA no.":1,"G2 robust z-score":3.69,"outcome":"inactive"}
{"gene":"FGF1","siRNA no.":2,"G2 robust z-score":-1.18,"outcome":"inactive"}
{"gene":"FGF1","siRNA no.":3,"G2 robust z-score":1.09,"outcome":"inactive"}
{"gene":"RLBP1","siRNA no.":1,"G2 robust z-score":2.51,"outcome":"inactive"}
{"gene":"RLBP1","siRNA no.":2,"G2 robust z-score":-0.869,"outcome":"inactive"}
{"gene":"RLBP1","siRNA no.":3,"G2 robust z-score":-1.17,"outcome":"inactive"}

3 of these entries, reformatted.
gene	siRNA no.	G2 robust z-score	outcome
FGF1	3	1.09	inactive
RLBP1	1	2.51	inactive
RLBP1	2	-0.869	inactive

More records follow:
{"gene":"RASSF9","siRNA no.":1,"G2 robust z-score":-0.805,"outcome":"inactive"}
{"gene":"RASSF9","siRNA no.":2,"G2 robust z-score":-0.987,"outcome":"inactive"}
{"gene":"RASSF9","siRNA no.":3,"G2 robust z-score":0.863,"outcome":"inactive"}
{"gene":"CCDC183","siRNA no.":1,"G2 robust z-score":-0.771,"outcome":"inactive"}
{"gene":"CCDC183","siRNA no.":2,"G2 robust z-score":-0.306,"outcome":"inactive"}
{"gene":"CCDC183","siRNA no.":3,"G2 robust z-score":1.53,"outcome":"inactive"}
{"gene":"RASGEF1C","siRNA no.":1,"G2 robust z-score":2.13,"outcome":"inactive"}
{"gene":"RASGEF1C","siRNA no.":2,"G2 robust z-score":-0.0906,"outcome":"inactive"}
{"gene":"RASGEF1C","siRNA no.":3,"G2 robust z-score":0.0714,"outcome":"inactive"}
{"gene":"BANF1","siRNA no.":1,"G2 robust z-score":-0.266,"outcome":"inactive"}
{"gene":"BANF1","siRNA no.":2,"G2 robust z-score":1.68,"outcome":"inactive"}
{"gene":"BANF1","siRNA no.":3,"G2 robust z-score":0.297,"outcome":"inactive"}
